Assay results published in the supplement of paper PMC10735217.
Counter-ions that a name gives are not always drawn. The list shows a part of the results. Single values are uncertain here, since repeats match poorly.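 In a drug-repurposing library screen, luminescence reads luciferase driven by eight TEAD-binding elements, stably integrated into human kidney-derived cells. Compounds scoring over five robust Z scores above the plate mean are called hits.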

Test system: HEK293A TEAD-LUC reporter
Assay: TEAD-luciferase reporter activity (YAP activation), robust Z score vs plate; higher = stronger YAP/TEAD activation
Settings: 24 h

| Compound | TEAD-luciferase reporter activity (compound concentration: 200 nM) | TEAD-luciferase reporter activity (compound concentration: 2 uM) | TEAD-luciferase reporter activity (compound concentration: 10 uM) |
| --- | --- | --- | --- |
| Cc1cc(C(=O)N2CCCCc3ccccc32)ccc1CNC(=O)NCC(=O)N(C)C | inactive: -0.426 | inactive: -0.278 | inactive: -1.08 |
| O=C(O)c1ccc2c(c1)CCC(Cn1ccnc1)C2 (stereo not drawn) [Nafagrel hydrochloride] | inactive: -0.949 | inactive: -0.323 | inactive: -1.56 |
| O=C(c1c[nH]c2ncccc12)N1CCN(Cc2ccccc2)CC1 | inactive: -0.805 | – | inactive: 1.71 |
| N#Cc1ccc(S(=O)(=O)Nc2cccc(C(c3c(O)c4c(oc3=O)CCCCCC4)C3CC3)c2)cc1 (stereo not drawn) | inactive: 0.306 | inactive: 0.548 | active: 9.35 |
| O=C1Nc2ccccc2C1(c1ccc(O)cc1)c1ccc(O)cc1 [Oxyphenisatine] | inactive: 2.07 | inactive: -2.47 | inactive: 2.22 |
| Cn1ccc2cc(-c3nc4ccc(F)nc4o3)cnc21 | inactive: 1.9 | inactive: -0.135 | inactive: 3.82 |
| COc1cccc(C2CC2CNC(C)=O)c1 (stereo not drawn) | inactive: -0.978 | inactive: 3.81 | inactive: 4.42 |
| Cc1cc(-n2ncc(=O)[nH]c2=O)cc(C)c1Oc1ccc(O)c(Cc2ccc(F)cc2)c1 | inactive: -0.475 | inactive: -0.724 | inactive: 0.286 |
| CCCCOc1cc(N)c(Cl)cc1C(=O)NC1CCN(CC2OCCO2)CC1 [dobupride] | inactive: 4.88 | inactive: -1.03 | inactive: -0.42 |
| C[C@H](O)C(=O)Nc1c(I)c(C(=O)NC(CO)CO)c(I)c(C(=O)NC(CO)CO)c1I [iopamidol] | inactive: 0.325 | inactive: -0.0405 | inactive: 3.54 |
| CC(=O)NCCCC(=O)N1CCN(c2cccc(C=O)c2)C(=O)C1 | inactive: -1.99 | – | inactive: 0.592 |
| Cc1cc2c(cc1CC(=O)c1sccc1S(=O)(=O)Nc1onc(C)c1Cl)OCO2 [Sitaxentan sodium] | inactive: -3.38 | inactive: -0.0238 | inactive: 4.64 |
| CCCCC[C@H](O)/C=C/C1[C@H]2C/C(=C\CCCC(=O)O)O[C@H]2C[C@@H]1O (stereo partly drawn) [epoprostenol] | inactive: -0.6 | inactive: -0.158 | active: 7.68 |
| NC(=O)NCCN1CCN(c2cccc(C(F)(F)F)c2)CC1 [fluprazine] | inactive: 1.24 | inactive: -1.03 | inactive: 1.09 |
| C=CC(=O)N1CC[C@@H](Oc2nc(Nc3ccc(N4CCC(N5CCN(C)CC5)CC4)cc3)c(C(N)=O)nc2CC)C1 | inactive: 2.65 | inactive: -1.05 | inactive: 1.22 |
| O=C(NCN1CCOCC1)c1cnccn1 | inactive: -0.691 | inactive: -1.01 | inactive: -0.348 |
| CCO[C@H](CN)Cc1ccc(OCc2nc(-c3ccccc3)oc2C)cc1 | inactive: -0.213 | inactive: -0.361 | inactive: 0.876 |
| CC(C)(/C=N/OCC(=O)O)Cc1c(SC(C)(C)C)c2cc(OCc3ccc4ccccc4n3)ccc2n1Cc1ccc(Cl)cc1 | inactive: -1.07 | inactive: -1.74 | active: 6.75 |
| Cc1nc2n(c(=O)c1CCN1CCC(C(=O)c3ccc(F)cc3)CC1)CCS2 | inactive: 0.389 | inactive: 0.381 | inactive: -0.921 |
| CCCCC[C@H](O)/C=C/C=C\C/C=C\C/C=C\CCCC(=O)O | inactive: -0.988 | – | inactive: 0.406 |
| CCCCC[C@H](O)/C=C/C=C\C/C=C\C/C=C\CCCC(=O)O [Icomucret] | – | inactive: -1.04 | – |
| C(=N\NC1=NCCN1)/c1c2ccccc2c(/C=N/NC2=NCCN2)c2ccccc12 [bisantrene HCl, Update Pharma] | inactive: -0.69 | – | inactive: 4.17 |
| C(=N\NC1=NCCN1)/c1c2ccccc2c(/C=N/NC2=NCCN2)c2ccccc12 [bisantrene HCl] | – | inactive: 4.95 | – |
| CN(Cc1ccc(F)cc1)C1CCc2ccccc21 (stereo not drawn) | inactive: -2.65 | – | inactive: 0.767 |
| Clc1ccc([C@]2(Cn3cncn3)O[C@H]2c2ccc(Cl)cc2Cl)cc1 | inactive: -0.404 | inactive: -0.0356 | inactive: 1.53 |
| CCC(=O)N1Cc2ccccc2CC2(CCCCN2C)C1 (stereo not drawn) | inactive: 2.79 | – | inactive: 1.94 |
| O=C(NCCc1ccccc1)c1c[nH]c2ncccc12 | inactive: 0.958 | – | inactive: 1.37 |
| C/C(=N\O)c1nc([C@@H](O)[C@H](O)[C@H](O)CO)c[nH]1 | inactive: 4.06 | inactive: -0.372 | inactive: -0.493 |

2 records drawn at random from the list so far, as already listed:

| Compound | TEAD-luciferase reporter activity (compound concentration: 200 nM) | TEAD-luciferase reporter activity (compound concentration: 2 uM) | TEAD-luciferase reporter activity (compound concentration: 10 uM) |
| --- | --- | --- | --- |
| CC(=O)NCCCC(=O)N1CCN(c2cccc(C=O)c2)C(=O)C1 | inactive: -1.99 | – | inactive: 0.592 |
| O=C(O)c1ccc2c(c1)CCC(Cn1ccnc1)C2 (stereo not drawn) [Nafagrel hydrochloride] | inactive: -0.949 | inactive: -0.323 | inactive: -1.56 |
